Some entries share one result that the patent states for a list of compounds.
test system: SH-SY5Y cells; assay: Ionophore assay: cellular metal levels by ICP-MS; format: cell-based; settings: 20 μM, 6 hours, FIG. 3
Procedure: Cells were maintained at 37° C. with 5% CO2 and passaged every 3-4 days. Compounds (10 mM) were solubilized in DMSO (Sigma). CQ and PBT2 were used as positive controls. Cells were treated with growth media supplemented with each compound ([…]) or vehicle for 6 hours. Cells were harvested and metal levels were measured with Inductively-Coupled Plasma Mass Spectrometry (Varian), as previously described. […] Data represents the mean and S.E.M. of at least 9 replicates from 3 experiments. A oneway ANVOA with Fisher's LSD test was used to determine statistical differences relative to control (Prism 6, Graphpad).
Dashed line indicates control level. SH-SY5Y cells treated were treated with each compound (20 μM) for 6 hours and cellular metal levels were measured with ICP-MS.
(§1) SH-SY5Y cells treated were treated with each compound (20 μM) for 6 hours and cellular metal levels were measured with ICP-MS. Dashed line indicates control level.
as §1

Q: `CN(Cc1cn(CCF)nn1)Cc1ccc2c(Cl)cc(Cl)c(O)c2n1` [Compound 28, 5,7-dichloro-2-((((1-(2-fluoroethyl)-1H-1,2,3-triazol-4-yl)methyl)(methyl)amino)methyl)quinolin-8-ol] was tested. Which “Zn neuronal uptake compared to PBT2” value did it give?
A: comparable results as PBT2

Q: How did the “Zn neuronal uptake compared to PBT2” value turn out when `CN(Cc1cn(CCCF)nn1)Cc1ccc2c(Cl)cc(Cl)c(O)c2n1` [Compound 29, 5,7-dichloro-2-((((1-(3-fluoropropyl)-1H-1,2,3-triazol-4-yl)methyl)(methyl)amino)methyl)quinolin-8-ol] was run?
A: comparable results as PBT2

Q: For `CN(Cc1cn(CCCCF)nn1)Cc1ccc2c(Cl)cc(Cl)c(O)c2n1` [Compound 30, 5,7-dichloro-2-((((1-(4-fluorobutyl)-1H-1,2,3-triazol-4-yl)methyl)(methyl)amino)methyl)quinolin-8-ol], which “Zn neuronal uptake compared to PBT2” value is on record?
A: comparable results as PBT2

same assay, conditions: CQ analogs, 20 μM, 6 hours, FIG. 2

Q: How did the “ionophore ability of both Cu and Zn” value turn out when `Oc1c(Cl)cc(F)c2cccnc12` [Compound 15, 7-chloro-5-fluoro-8-hydroxyquinoline] was run?
A: improved

Q: How did the “ionophore ability of both Cu and Zn” value turn out when `Oc1c(Br)cc(F)c2cccnc12` [Compound 16, 7-bromo-5-fluoro-8-hydroxyquinoline] was run?
A: improved

Q: Which “ionophore ability of both Cu and Zn” value does the source give for `Oc1c(I)cc(F)c2cccnc12` [Compound 17, 5-fluoro-7-iodo-8-hydroxyquinoline] here?
A: improved
